Record: PubChem BioAssay AID1259331 (Drosophila RNAi Screening Center, 2017)
This is a random part of about 3,100 reagents. Over the whole deposit, 126 (4.1%) got an active call. 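Calls are per reagent; zinc was so toxic that few knock-downs lowered ATP further, so most hits raise ATP.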 Raw values are not corrected between plates. A number with no mark means an inactive call. Not stated in the record: the amount of reagent.

Test: 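Fly transmembrane-protein genes that affect zinc toxicity in cultured cells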 (primary screen)
System: Drosophila S2R+ cells
Reagent: long dsRNA against Drosophila genes
Duration: 5 days (4 days knock-down, then 1 day zinc)
Challenge: zinc chloride at 15 mM final level for 1 day
Read-out: 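Total cellular ATP measured by luciferase luminescence as a viability proxy, turned into Z scores from three plate copies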
Direction: mean Z score: higher = more ATP than other wells, better survival under zinc; ATP luminescence: higher = more ATP, more viable cells
Active means: 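Hit when the absolute Z score is greater than 1.5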
Calls: active = hit, ATP up or down; inactive = not a hit

| Gene | amplicon | mean Z score | ATP luminescence, replicate 1 | ATP luminescence, replicate 2 |
| --- | --- | --- | --- | --- |
| Or69a | DRSC11243 | -0.962 | 56256 | 45251 |
| Or69a | DRSC25967 | 0.118 | 54716 | 60448 |
| ATP8B | DRSC14961 | -0.284 | 35942 | 49640 |
| Toll-7 | DRSC29640 | 0.478 | 68815 | 68709 |
| Toll-7 | DRSC39883 | -0.762 | 45371 | 49297 |
| CG9536 | DRSC03254 | -0.13 | 55556 | 53138 |
| CG9536 | DRSC24736 | -0.0934 | 40896 | 62827 |
| gcl | DRSC07623 | -0.392 | 30507 | 27855 |
| gcl | DRSC27995 | -0.196 | 56173 | 57734 |
| Dop2R | DRSC20683 | 2.24 (active) | 64611 | 71333 |
| Dop2R | DRSC29286 | 0.967 | 72487 | 80193 |
| SdhD | DRSC14215 | -0.0756 | 34193 | 55813 |
| SdhD | DRSC39808 | 0.0222 | 56225 | 56859 |
| CG14647 | DRSC22497 | 0.591 | 65108 | 70682 |
| CG14647 | DRSC39593 | -0.239 | 58179 | 57545 |
| boi | DRSC18425 | -0.411 | 59654 | 58802 |
| boi | DRSC25851 | 0.338 | 57134 | 62381 |
| CG12355 | DRSC09381 | 0.528 | 54321 | 40253 |
| CG12355 | DRSC09883 | -0.106 | 71812 | 60666 |
| Lkr | DRSC09754 | -0.0237 | 72551 | 61198 |
| Lkr | DRSC39496 | 0.556 | 61575 | 54230 |
| sev | DRSC20372 | -0.355 | 66753 | 53447 |
| sev | DRSC36615 | -0.144 | 44462 | 46159 |
| sev | DRSC36616 | 0.705 | 66736 | 50566 |
| Ephrin | DRSC17165 | -0.421 | 64851 | 53173 |
| Ephrin | DRSC39417 | -0.637 | 47754 | 32703 |
| Ephrin | DRSC39418 | -0.0538 | 39820 | 58608 |
| l(2)k05819 | DRSC00826 | -0.334 | 48629 | 54562 |
| l(2)k05819 | DRSC39612 | -0.854 | 42764 | 47806 |
| Trpgamma | DRSC03626 | -0.201 | 45577 | 40879 |
| Trpgamma | DRSC39800 | 0.298 | 57700 | 63324 |
| CG6790 | DRSC16117 | -0.0566 | 43422 | 45645 |
| CG31689 | DRSC00734 | -0.286 | 43348 | 42336 |
| CG31689 | DRSC24715 | -0.2 | 58111 | 58523 |
| jef | DRSC06198 | -0.0466 | 67221 | 75604 |
| jef | DRSC24815 | 0.046 | 61135 | 57905 |
| Spase25 | DRSC19776 | -0.277 | 42954 | 41908 |
| Spase25 | DRSC39745 | -0.24 | 61112 | 61747 |
| ATP7 | DRSC19819 | 0.184 | 71899 | 66234 |
| ATP7 | DRSC39460 | -0.176 | 49917 | 52281 |
| CG17930 | DRSC15292 | 0.121 | 46091 | 48920 |
| CG17930 | DRSC28230 | 0.965 | 73100 | 79481 |
| stol | DRSC01956 | 0.0532 | 49658 | 38868 |
| stol | DRSC39841 | 0.301 | 56173 | 65021 |
| Mct1 | DRSC18681 | -0.48 | 59534 | 56620 |
| Mct1 | DRSC29006 | -0.0358 | 59363 | 62347 |
| TyrRII | DRSC25254 | 0.509 | 70596 | 67852 |
| Or59a | DRSC04631 | -0.836 | 39266 | 36079 |
| Or59a | DRSC39825 | -0.141 | 48697 | 60119 |
| ihog | DRSC03157 | 0.0208 | 54493 | 58660 |
| ihog | DRSC29581 | 0.214 | 65640 | 63736 |
| CG4101 | DRSC10400 | -0.521 | 63770 | 53721 |
| ninaA | DRSC00830 | -0.421 | 44480 | 56431 |
| CG31999 | DRSC17131 | 0.259 | 66360 | 74421 |
| CG31999 | DRSC17133 | -0.354 | 38417 | 39216 |
| Gr85a | DRSC12760 | -0.0147 | 35496 | 58094 |
| Gr85a | DRSC39653 | -0.695 | 53381 | 44325 |
| Hacd1 | DRSC02988 | -0.228 | 49555 | 56672 |
| Pdfr | DRSC18614 | 1.52 (active) | 86531 | 96052 |
| Pdfr | DRSC39789 | -0.479 | 44737 | 54493 |
| CG17646 | DRSC00507 | 3.27 (active) | 1.10e5 | 94027 |
| CG17646 | DRSC39859 | -0.0358 | 58368 | 62295 |
| ppk6 | DRSC06062 | 0.0857 | 66372 | 74283 |
| ppk6 | DRSC39881 | -0.43 | 50121 | 56293 |
| ppk18 | DRSC02216 | -0.855 | 35736 | 34313 |
| ppk18 | DRSC02217 | 0.0954 | 54167 | 36679 |
| ppk18 | DRSC39853 | -0.0244 | 57682 | 53952 |
| ItgaPS4 | DRSC06630 | 0.21 | 72279 | 77234 |

Quoted from the entries so far for reference:
| Gene | amplicon | mean Z score | ATP luminescence, replicate 1 | ATP luminescence, replicate 2 |
| --- | --- | --- | --- | --- |
| ihog | DRSC29581 | 0.214 | 65640 | 63736 |
| CG4101 | DRSC10400 | -0.521 | 63770 | 53721 |
| ninaA | DRSC00830 | -0.421 | 44480 | 56431 |
| CG31999 | DRSC17131 | 0.259 | 66360 | 74421 |
| CG31999 | DRSC17133 | -0.354 | 38417 | 39216 |
| Gr85a | DRSC12760 | -0.0147 | 35496 | 58094 |
